Test results as given in doi:10.1101/856021.
No constants are given. Whether binding was seen depends on the method and setting. In cells and extracts the contact can be indirect. Here binding means that the protein was enriched with, or labelled near, the bait; the list need not be complete. Where a sequence is shown, tags or fusion partners need not be part of it.

Protein sequences, listed by entry. Tags and fused reporters are not part of them. Lines headed by an entry give the natural chain unless they say otherwise; changes in a name come on top.
UniProt Q9VAA9: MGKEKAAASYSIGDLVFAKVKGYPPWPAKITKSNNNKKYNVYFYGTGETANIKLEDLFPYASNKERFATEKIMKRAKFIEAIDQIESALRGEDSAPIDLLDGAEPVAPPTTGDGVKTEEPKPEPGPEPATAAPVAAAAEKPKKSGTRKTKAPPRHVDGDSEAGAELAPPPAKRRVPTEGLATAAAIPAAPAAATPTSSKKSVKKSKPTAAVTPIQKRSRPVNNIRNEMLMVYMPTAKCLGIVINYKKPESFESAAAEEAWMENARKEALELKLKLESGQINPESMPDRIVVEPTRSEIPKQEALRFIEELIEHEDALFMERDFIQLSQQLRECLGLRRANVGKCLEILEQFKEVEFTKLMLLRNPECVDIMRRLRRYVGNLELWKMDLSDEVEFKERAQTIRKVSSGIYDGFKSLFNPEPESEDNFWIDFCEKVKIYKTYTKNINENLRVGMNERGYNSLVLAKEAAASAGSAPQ

Target: V5::dP75 (V5 tag knocked in at the endogenous dP75 locus) (Drosophila (endogenous in fly ovaries)) (UniProt Q9VAA9)
Test: affinity purification with mass spectrometry

B1: histone kinase Jil-1 (endogenous, fly ovaries) (enzyme, UniProt Q9V3I5 1-1207)
chain: MSRLQKQNYEILSGTSTSRLKNHQHPRESESLAYEEPDQMVRNHLNGQLVANGNGKTRKNSNSETMTNGKKSKLNTEGSGSGSGKTLNYNNNNNNNNSISATNGQYTNSSSKTTSASARDYTYRETISPPTPPSPPTTNVADIVCISDAESEDGRDPEREYYDQDMEEDEPNGIEIDESSSSLSKAKSNNAAAAAAAAAAAAAAAASKASSSTTPSYAMPTSNSTPLDLDNEAHQRDLEAVTDLKYYVKLYSDEAVSLNDFKIIRVLGTGAYGRVFLVRKLTRHDAGKLYAMKVLNKITVVQKRKTAEHTKTERVVLEAIQRNPFLVSLHYAFQSSSKLYLVLDFANGGELFTHLYHSENFEESRVRVYIAEVVLALEQLHQLGIIYRDIKLENILLDGEGHIVLSDFGLSKILTAENEYRAHSFCGTLEYMAPEIIRTGPPGHDSAVDWWSVGVLTFELLTGASPFATSDGQVQQSEISRRIQKEQPMIPSSFSANARDFVLKMLEKNPKRRLGGNHRDASEIKEHPFFNGINWQELRTKRRKAPYKPTLTAEDDVQNFSNEFTDQVPEDPECDAPPSRIRLFRGYTYVAPEHLEQMRRDNHCEIQYFNTGLQNIPCRPDDLELGTRTSNGAYGTCHFVVDSSTDLVFLAKIIPLSKFRPSEVDALISCALDTTNHKNIVSYHGTFREKCETWIVMEYLSGPELTASIRMDEDSCREIFLQLVMAVRHIHSKHFIHGDLKPENIMFENREDRTVKLIDFGSACYNNRFKSWKDKPRYTLDYAPPEMLADANLVTYSPAVDIYGLGATLYTMLVGHRPYRQNEDDVDHSAAAHHELRKRMRRGTFNQRSMRWESASPAFRHLVSWCLQRDPADRPTLSDILDSEWLQYGSNDPDVDIILPQQMVVDLSEDTMEQPTGGMFDDQQQLEFMHDKSAEDEGITLVSEPMDTTVATHESRRNAAAFSSVVAPTTDDEIVHERFDPAFEVQADFYGFDENAPPLPLPEEYYSELPLPEEDRQYIPPPPALIPVEPETTFRRPRTRQQRRTESQLVQPVSVATYEDSKASLRVLMQQLPPPGDNVVARIPKRTHRVVRTLPPTFGTTKREENFYGFSKTAISWRKTRASWRHFCLLINGVQQVLKVRFKKARRVYCLPHIKEEKLDHAYEKPLTFPRPKAQLKRTKREPKVPRPPTRVQPERARAMRQLYQFQ
**Q.** B1 was tested. Which binding did it give?
**A.** binds
